In US20090092600A1 (Dana-Farber, published 2009):
No constants are given. Whether binding was seen depends on the method and setting. In cells and extracts the contact can be indirect. Some results given as binding are weak or reduced against the parent protein; the word gives no strength.

Sequences of proteins named here, by UniProt entry; tags and fusion partners are left off. A change or cut given only in a name is not applied to a line headed by its entry.
UniProt P40763: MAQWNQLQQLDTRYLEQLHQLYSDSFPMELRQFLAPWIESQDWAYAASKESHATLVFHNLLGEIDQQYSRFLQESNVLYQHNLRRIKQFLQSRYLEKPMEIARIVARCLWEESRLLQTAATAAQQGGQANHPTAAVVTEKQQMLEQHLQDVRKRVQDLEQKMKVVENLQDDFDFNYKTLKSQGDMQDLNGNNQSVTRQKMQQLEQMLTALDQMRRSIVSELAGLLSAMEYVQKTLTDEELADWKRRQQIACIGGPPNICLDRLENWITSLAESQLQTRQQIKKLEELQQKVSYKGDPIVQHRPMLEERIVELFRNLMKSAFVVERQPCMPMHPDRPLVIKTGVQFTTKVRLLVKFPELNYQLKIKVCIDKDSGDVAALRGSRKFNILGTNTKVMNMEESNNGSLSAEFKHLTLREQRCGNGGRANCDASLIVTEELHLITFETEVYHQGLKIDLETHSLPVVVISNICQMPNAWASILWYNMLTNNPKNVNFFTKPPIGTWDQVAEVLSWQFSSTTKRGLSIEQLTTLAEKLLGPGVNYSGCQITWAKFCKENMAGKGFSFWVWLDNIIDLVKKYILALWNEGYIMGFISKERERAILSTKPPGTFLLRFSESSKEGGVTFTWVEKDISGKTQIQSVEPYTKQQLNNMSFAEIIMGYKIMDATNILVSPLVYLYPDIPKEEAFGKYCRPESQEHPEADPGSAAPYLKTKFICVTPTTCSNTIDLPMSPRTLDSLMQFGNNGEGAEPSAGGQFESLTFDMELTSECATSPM

Target: GST-STAT3 (human) (UniProt P40763)
Assay: GST pull-down on glutathione beads, immunoblot with anti-His or anti-MUC1-C

B1: His-tagged MUC1-CD (MUC1 cytoplasmic domain) (other)
chain: CQCRRKNYGQLDIFPARDTYHPMSEYPTYHTHGRYVPPSSTDRSPYEKVSAGNGGSSLSYTNPAVAAASANL
notes: Purified recombinant protein; also called His-MUC1; not shown: His tag
- binding: binds
